Measurements: patent publication US20240287172A1, “PROTEIN BINDERS TO IRHOM2 EPITOPES” (SCIRHOM GMBH, priority 2019, published 2024)
Positions count from the first letter of the chain named. No constants are given. Whether binding was seen depends on the method and setting. Some entries that bind do so weakly or less than the wild type.

B1: antibody 16 (antibody, V domains shown)
VH: QVTLKESGPGILQPSQTLSLTCSFSGFSLSTFALGVGWIRQPSGRGLEWLAHIWWDDDKYYNPALKSRLTISKDTSKNHVFLKIANVDTADTATYYCARITTYYYGMDYWGQGTSVTVSS
VL: DIVLSQSPATLSVTPGDSVSLFCRASQSIGNHLHWYQQESHASPRLLIKYASQSISGIPSRFSGSGSGTDFTLSINSVETEDFGMYFCQQSYNWPLTFGAGTKLELK
B2: antibody 22 (antibody, V domains shown)
VH: QVTLKESGPGILQPSQTLSLTCSFSGFSLSTFGMGVGWIRQPSGKGLEWLAHIWWDDEKYYNSALKSRLTISKATSKNQVFLKIANVDTADTATYYCARISNYGSNYWYFNVWGTGTTVTVSS
VL: QVVLTQSPALMSASPGEKVTMTCSAGSSVSYMYWYQQKPGSSPRVLIYDTSNLASGVPARFTGSGSGTSYSLTISRMEAEDAATYYCQQWNSYPLTFGAGTKLELK
B3: antibody 42 (antibody, V domains shown)
VH: B2 VH with F24L, M34R, S63P, A74D, K83R, S101Q, N111D
VL: LIVLTQSPAIMSASPGEKVTMTCGATSRISYMFWYQQKPGSSPRVLIYDTSNLASGVPVRFSGSGSGTSYSLTISRVEAEDVATYYCQQWNSYPLTFGAGTKLELK
B4: antibody 48 (antibody, V domains shown)
VH: QVQLQQSGTELVRPGTSVKVSCKASGYAFTNYLIEWVKQRPGQGLEWIGVINPGSGFTKYNEKFKGKATLTADKSSSTVYMHLSSLTSEDSAVYFCARGLYRAMDYWGQGTSVTVSS
VL: DIQMTQSPASQSASLGESVTITCLASQTIATWLAWYQQKPGKSPQLLIYGATTLADGVPSRFSGGGSGTKFSFKISSLQAEDFVSYYCQQLYSTPYTFGGGTKLEIK
B5: antibody 50 (antibody, V domains shown)
VH: B4 VH with T9A, T16A, T30S, V79A, H82Q
VL: B4 VL with A30G, G50A, T52A, T53S, S85N, L91I
B6: antibody 43 (antibody, V domains shown)
VH: B2 VH with T3A, P42S, H52N, E58D, S63P, A74D, T75A, V80A, S101G, N111D
VL: B3 VL with L1Q, K18R, G24S, T26N, F33Y, V45L, V77M, V82A, Y86N, N91S
B7: antibody 5 (antibody, V domains shown)
VH: B2 VH with V80A
VL: B2 VL with Y31C, T84S
B8: antibody 44 (antibody, V domains shown)
VH: B2 VH with G44E, E58D, S63P, A74D, V80I, A85T, D91E, A98S, S101G, N111D
VL: B2 VL with V2I, L10V, S24T, G26S, S30Y, K38T, V45L, A59V, T62S, S92T
B9: antibody 34 (antibody, V domains shown)
VH: QVTLKESGPGILQPSQTLSLTCSFSGFSLSTFSLGVGWIRQSSGKGLEWLAHIWWDDEKYYNPALKSRLTISKDTSKNQVFLKIANVDAADTATYYCARAYYSKSYYALDYWGQGTSVTVSS
VL: DIQMTQSPSSLSASLGERVSLTCRASQEISGYLSWLQQKPDGTIKRLIYAASTLDSGVPKRFSGSRSGSDYSLAISSLESEDFADYYCLQYANFPFTFGSGTKLEIK
B10: antibody 3 (antibody, V domains shown)
VH: QVTLKESGPGILQPSQTLSLTCSFSGFSLTTFAMGIGWVRQPSGKGLEWLAHIWWDGEKYNNPVLKSRLTISKDTSKNQVFLRIANVDTPDTATYYCARISSIYYIIDNWGQGTSVTVSS
VL: B1 VL with S5T, D17H, F22S, G30S, H32N, Q38K, E39K, A42E, A51V
B11: chimeric antibody 16 (antibody, V domains shown)
VH: B1 VH
VL: B1 VL

These binders were tested against T1, human iRhom2, endogenously expressed (human) (UniProt Q6PJF5) (assay: FACS, RPMI-8226 and THP-1 cells, 3 µg/ml, murine version).
T1 sequence: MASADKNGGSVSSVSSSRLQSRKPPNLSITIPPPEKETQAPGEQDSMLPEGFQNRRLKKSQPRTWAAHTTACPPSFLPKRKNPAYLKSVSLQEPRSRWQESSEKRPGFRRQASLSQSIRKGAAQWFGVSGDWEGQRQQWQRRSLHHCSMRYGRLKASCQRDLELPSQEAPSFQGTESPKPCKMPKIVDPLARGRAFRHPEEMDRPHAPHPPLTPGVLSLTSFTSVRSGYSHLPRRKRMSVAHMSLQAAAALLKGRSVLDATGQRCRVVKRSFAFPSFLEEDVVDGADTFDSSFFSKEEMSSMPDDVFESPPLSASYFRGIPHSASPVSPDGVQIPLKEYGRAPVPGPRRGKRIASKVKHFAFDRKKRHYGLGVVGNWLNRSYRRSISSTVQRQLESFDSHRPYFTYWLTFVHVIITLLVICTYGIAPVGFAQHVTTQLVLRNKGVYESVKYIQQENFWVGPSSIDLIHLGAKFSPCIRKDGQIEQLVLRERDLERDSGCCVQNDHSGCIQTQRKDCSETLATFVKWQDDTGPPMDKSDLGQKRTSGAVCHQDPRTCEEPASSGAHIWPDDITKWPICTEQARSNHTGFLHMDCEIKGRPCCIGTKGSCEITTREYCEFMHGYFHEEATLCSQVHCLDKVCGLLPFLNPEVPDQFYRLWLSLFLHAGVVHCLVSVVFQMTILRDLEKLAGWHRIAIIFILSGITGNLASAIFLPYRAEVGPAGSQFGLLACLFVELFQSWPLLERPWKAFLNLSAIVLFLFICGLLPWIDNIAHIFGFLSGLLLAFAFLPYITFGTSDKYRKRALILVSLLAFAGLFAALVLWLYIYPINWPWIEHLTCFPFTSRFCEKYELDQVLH

binding, binds:
B1

The binders below were run against T1, human iRhom2, endogenously expressed (human) (assay: FACS, RPMI-8226 and THP-1 cells; via representative antibody 16).

binding, binds:
B2
B3

The binders below were run against T1, human iRhom2, endogenously expressed (human) (assay: FACS scatchard on THP-1 cells).

binding, binds:
B4
B5
B2
B6
B7
B3
B8
B9
B1
B10

What follows are binders tested against T1, human iRhom2, endogenously expressed (human) (assay: FACS on RPMI-8226 and THP-1 cells (iRhom2-positive), 3 µg/ml).

binding, binds:
B1
B11

The binders below were run against T1, human iRhom2, endogenously expressed (human) (assay: FACS, RPMI-8226 and THP-1 cells, 3 µg/ml).

binding, binds:
B1
B11

These binders were tested against T1, human iRhom2, endogenously expressed (human) (assay: indirect FACS scatchard on THP-1 cells; KD only in FIG. 6).

binding, binds:
B4
B5
B2
B6
B7
B3
B8
B9
B1
B10
